Earlier results as cited in patent publication US20120184517A1, “TREATMENT OF DISEASES WITH ALTERED SMOOTH MUSCLE CONTRACTILITY” (priority 2009, published 2012).
At least one compound was matched to its structure with a doubt left.

Test system: arterial smooth muscle
Conditions: cited from earlier work

C=C[C@@]1(C)CC(=O)[C@]2(O)[C@@]3(C)[C@@H](O)CCC(C)(C)[C@@H]3[C@H](O)[C@H](OC(C)=O)[C@@]2(C)O1 [forskolin]
effect on Ca2+ spark frequency (phospholamban null mice): little effect
increase in Ca2+ spark frequency (wild type animals): ~2 fold
